PubChem BioAssay AID1259405, NCATS – 2018

Assay: 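Silenced genes that increase secreted GFP made by CHO cells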 (primary screen)
Cells: Chinese hamster CHO-K1 ovary cells with stable secreted eGFP expression
Knock-down reagent: single siRNA against mouse genes, 0.8 pmol siRNA per well (2 µl of 400 nM stock)
Duration: 3 days
Read-out: 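Per-well intracellular GFP measured by laser scanning cytometry, plus viability from ATP luminescence, each relative to plate median of non-targeting control wells, in %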
Reading the numbers: GFP, % of control: higher = more GFP per well, higher productivity
Active means: 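Called active when intracellular GFP, relative to negative control, is at or above 120%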
The whole screen tested about 50,000 reagents; this is an unselected part. In the full data, about 4,000 (8%) are marked active. 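Mouse siRNA library applied to hamster cells; one well for each siRNA.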 A number with no mark means an inactive call. Reagents against one gene are numbered here. Further read-outs or replicates are left out here.

GFP, % of control, by gene and reagent
Rbsn (rabenosyn, RAB effector): #1 78; #2 76.7; #3 97.7
Larp4b (La ribonucleoprotein 4B): #1 55.7; #2 73; #3 82.1
Parn (poly(A)-specific ribonuclease (deadenylation nuclease)): #1 49.5; #2 133 (active)
Proser1 (proline and serine rich 1): #1 72.1; #2 63.1; #3 74.8
Or8b37 (olfactory receptor family 8 subfamily B member 37): #1 71.4; #2 61.7; #3 89.4
Ifi203 (interferon activated gene 203): #1 73.3; #2 83.2; #3 86.2
Pfkfb3 (6-phosphofructo-2-kinase/fructose-2,6-biphosphatase 3): #1 91.4; #2 51.7; #3 77.5
Cdca7 (cell division cycle associated 7): #1 73.7; #2 66.8; #3 99.5
Otub2 (OTU domain, ubiquitin aldehyde binding 2): #1 72.6; #2 126 (active); #3 87.5
Ppp6r1 (protein phosphatase 6, regulatory subunit 1): #1 119; #2 84.3; #3 59.6
Ogfod1: #1 89.7; #2 64.5; #3 85.7
Smarca2: #1 82.1; #2 90.7; #3 66
Aurka (aurora kinase A): #1 73.5; #2 94.4; #3 79.5
Mas1 (MAS1 proto-oncogene, G protein-coupled receptor): #1 82.1; #2 87.5; #3 73.4
Rilpl1 (Rab interacting lysosomal protein-like 1): #1 78; #2 107; #3 58
Ccl24 (C-C motif chemokine ligand 24): #1 148 (active); #2 52
Kctd13 (potassium channel tetramerisation domain containing 13): #1 61.4; #2 103
Mpp2: #1 84.8
Arfgap3 (ARF GTPase activating protein 3): #1 126 (active); #2 88.8; #3 105
Vapb: #1 111; #2 77.4
Saraf (store-operated calcium entry-associated regulatory factor): #1 77; #2 57; #3 70.8
Trim6 (tripartite motif-containing 6): #1 73.3; #2 57.9; #3 56.1
Tnfrsf26 (tumor necrosis factor receptor superfamily, member 26): #1 110; #2 98.6; #3 121 (active)
9930014A18Rik (RIKEN cDNA 9930014A18 gene): #1 62.3; #2 84.4; #3 58
Ddx52 (DExD box helicase 52): #1 88; #2 194 (active)
Rab22a (RAB22A, member RAS oncogene family): #1 55.5; #2 88.9; #3 86.8
Tmem106b (transmembrane protein 106B): #1 85.7; #2 104; #3 37.1
Cops4 (COP9 signalosome subunit 4): #1 78.7; #2 25.2; #3 122 (active)
Igf1r (insulin-like growth factor I receptor): #1 58.3
Ndnf (neuron-derived neurotrophic factor): #1 63.1; #2 97.6; #3 96.5
Zbtb8a (zinc finger and BTB domain containing 8a): #1 96.1; #2 64.7; #3 62.4
